According to paper doi:10.1101/2024.05.10.593632:

Experiments:
[1] = target: SlSAUR38 fused to the GAL4 DNA-binding domain (tomato (Solanum lycopersicum)); assay: two-hybrid
[2] = target: SlLHA4-N-YFPC (tomato (Solanum lycopersicum)); assay: split reporter
[3] = target: SlSAUR36 fused to the GAL4 DNA-binding domain (tomato (Solanum lycopersicum)); assay: two-hybrid

Row | binding [2] | Substance | other results
1 | – | SlPP2C.D2 fused to the GAL4 activation domain (from UniProt A0A3Q7FTY4) (enzyme) | binding [1]: binds
2 | binds | SlPP2C.D2-N-YFPN (from UniProt A0A3Q7FTY4) (enzyme) | –
3 | – | SlPP2C.D3 fused to the GAL4 activation domain (from UniProt A0A3Q7FIB7) (enzyme) | binding [1]: binds
4 | binds | SlPP2C.D3-N-YFPN (from UniProt A0A3Q7FIB7) (enzyme) | –
5 | – | SlPP2C.D4 fused to the GAL4 activation domain (from UniProt A0A3Q7GLG9) (enzyme) | binding [3]: binds
6 | binds | SlPP2C.D4-N-YFPN (from UniProt A0A3Q7GLG9) (enzyme) | –
7 | – | SlPP2C.D5 fused to the GAL4 activation domain (from UniProt A0A3Q7GZ61) (enzyme) | binding [3]: binds
8 | binds | SlPP2C.D5-N-YFPN (from UniProt A0A3Q7GZ61) (enzyme) | –

These are yes or no findings as the source states them, for the method shown. Binding can be weak; no strength is given. For some assays here: Binding seen in cells or lysates may run through a third protein.
